Results from US20100040623A1, “NEURITOGENIC AND NEURONAL SURVIVAL PROMOTING PEPTIDES DERIVED FROM THE FAMILY OF S-100 PROTEINS” (priority 2005, published 2010).
Some results were stated once for a whole list of compounds, not compound by compound.

System: kainic acid (KA)-induced toxicity
Experiment: Kainic acid-induced toxicity (seizures, mortality)
Format: in vivo, Male C57BL/6J mice
Conditions: 30 mg/kg KA; peptide 10 mg/kg daily from day -2
Experimental: Male C57BL/6J mice were injected with 10 mg/kg H3 or H6 daily starting from day-2 prior to kainic acid treatment. At day 0 the animals were injected 30 mg/kg KA in order to induce severe seizures, or 20 mg/kg KA in order to induce mild seizures and prevent excessive mortality. Latency and seizure severity were scored for 2 h postinjection by using a numerical scale of 0 to 6: 0—immobility; 1—facial automatism; 2—head nodding; 3—forelimb clonus; 4—rearing; 5—generalized convulsions; 6—death. Control animals received s.c injection of vehicle.

Sequence | decrease of mortality
KELLTRELPSFLGKRT [A4H3, tetrameric peptide (hekatone) representing region 3 of S100A4] | 30-50%
NEFFEGFPDKQPRKK [A4H6, tetrameric peptide (hekatone) representing region 6 of S100A4] | 30-50%
